Source: publication doi:10.1101/2022.01.10.475757
Where two headings read alike, the source gives them in different places. These are yes or no findings as the source states them, for the method shown. In cells and extracts the contact can be indirect. Some entries that bind do so weakly or less than the wild type. Sequences can lack the tags named with a protein.

Amino acid sequences for entries named in this document (tags omitted).
UniProt Q61025: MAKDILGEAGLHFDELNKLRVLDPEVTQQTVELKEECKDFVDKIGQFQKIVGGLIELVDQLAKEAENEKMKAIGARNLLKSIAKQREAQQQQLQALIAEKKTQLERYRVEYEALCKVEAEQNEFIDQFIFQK

What was measured:
Assay in all cases: co-IP
[1] = target: T1, GFP-CCDC38 (coiled-coil domain containing 38) (UniProt Q8CDN8)
T1 sequence: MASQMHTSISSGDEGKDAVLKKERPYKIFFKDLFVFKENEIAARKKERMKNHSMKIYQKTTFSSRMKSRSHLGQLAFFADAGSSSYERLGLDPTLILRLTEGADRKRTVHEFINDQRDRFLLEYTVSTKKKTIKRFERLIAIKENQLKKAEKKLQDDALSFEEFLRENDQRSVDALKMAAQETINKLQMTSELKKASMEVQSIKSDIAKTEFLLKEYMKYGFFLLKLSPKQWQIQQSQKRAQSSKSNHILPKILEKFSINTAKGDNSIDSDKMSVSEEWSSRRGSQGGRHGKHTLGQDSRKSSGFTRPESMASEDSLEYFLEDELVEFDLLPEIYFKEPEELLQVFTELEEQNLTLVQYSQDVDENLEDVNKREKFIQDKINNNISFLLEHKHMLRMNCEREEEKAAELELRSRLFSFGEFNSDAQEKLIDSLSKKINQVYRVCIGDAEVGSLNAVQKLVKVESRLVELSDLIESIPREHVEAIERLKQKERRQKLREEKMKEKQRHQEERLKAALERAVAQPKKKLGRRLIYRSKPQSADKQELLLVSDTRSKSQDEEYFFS

[2] = target: T2, MYC-CCDC42 (UniProt Q5SV66)
T2 sequence: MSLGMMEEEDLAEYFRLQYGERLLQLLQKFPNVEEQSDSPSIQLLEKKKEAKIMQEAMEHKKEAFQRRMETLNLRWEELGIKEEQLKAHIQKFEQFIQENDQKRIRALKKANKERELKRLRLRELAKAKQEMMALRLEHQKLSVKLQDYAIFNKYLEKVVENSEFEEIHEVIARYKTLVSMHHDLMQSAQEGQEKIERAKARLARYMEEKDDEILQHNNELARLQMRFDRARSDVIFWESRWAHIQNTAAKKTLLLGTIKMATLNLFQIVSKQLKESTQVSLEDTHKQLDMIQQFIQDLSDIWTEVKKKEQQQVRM

[3] = target: T3, HA-ODF2 (outer dense fibrous 2) (UniProt A3KGV1)
T3 sequence: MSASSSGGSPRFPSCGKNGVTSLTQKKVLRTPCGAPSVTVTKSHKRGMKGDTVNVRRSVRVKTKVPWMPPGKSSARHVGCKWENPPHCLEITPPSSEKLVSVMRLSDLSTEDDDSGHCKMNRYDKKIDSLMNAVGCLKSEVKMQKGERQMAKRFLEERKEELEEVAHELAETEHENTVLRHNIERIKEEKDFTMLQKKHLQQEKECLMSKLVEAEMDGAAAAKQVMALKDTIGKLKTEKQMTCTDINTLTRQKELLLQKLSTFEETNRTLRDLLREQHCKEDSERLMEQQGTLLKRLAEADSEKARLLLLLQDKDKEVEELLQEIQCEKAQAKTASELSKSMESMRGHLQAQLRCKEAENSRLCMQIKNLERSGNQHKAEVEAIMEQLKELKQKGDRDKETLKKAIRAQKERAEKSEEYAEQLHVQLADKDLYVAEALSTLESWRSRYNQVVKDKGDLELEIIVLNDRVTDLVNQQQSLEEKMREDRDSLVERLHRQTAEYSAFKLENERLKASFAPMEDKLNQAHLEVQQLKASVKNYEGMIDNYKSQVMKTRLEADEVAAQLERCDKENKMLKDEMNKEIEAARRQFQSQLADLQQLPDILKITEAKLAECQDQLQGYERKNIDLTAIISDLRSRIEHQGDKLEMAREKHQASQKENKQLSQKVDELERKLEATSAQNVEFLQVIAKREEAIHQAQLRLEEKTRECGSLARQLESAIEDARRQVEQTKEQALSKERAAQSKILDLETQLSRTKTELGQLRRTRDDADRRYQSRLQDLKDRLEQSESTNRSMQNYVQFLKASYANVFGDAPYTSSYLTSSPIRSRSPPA

[4] = target: T1, GFP-CCDC38 (coiled-coil domain containing 38); remark: listed apart in the source

FLAG-IFT20 (from UniProt Q61025 1-132)
binding [1]: no binding

B1: GFP-CCDC38 (coiled-coil domain containing 38) (protein, UniProt Q8CDN8 1-563)
chain: MASQMHTSISSGDEGKDAVLKKERPYKIFFKDLFVFKENEIAARKKERMKNHSMKIYQKTTFSSRMKSRSHLGQLAFFADAGSSSYERLGLDPTLILRLTEGADRKRTVHEFINDQRDRFLLEYTVSTKKKTIKRFERLIAIKENQLKKAEKKLQDDALSFEEFLRENDQRSVDALKMAAQETINKLQMTSELKKASMEVQSIKSDIAKTEFLLKEYMKYGFFLLKLSPKQWQIQQSQKRAQSSKSNHILPKILEKFSINTAKGDNSIDSDKMSVSEEWSSRRGSQGGRHGKHTLGQDSRKSSGFTRPESMASEDSLEYFLEDELVEFDLLPEIYFKEPEELLQVFTELEEQNLTLVQYSQDVDENLEDVNKREKFIQDKINNNISFLLEHKHMLRMNCEREEEKAAELELRSRLFSFGEFNSDAQEKLIDSLSKKINQVYRVCIGDAEVGSLNAVQKLVKVESRLVELSDLIESIPREHVEAIERLKQKERRQKLREEKMKEKQRHQEERLKAALERAVAQPKKKLGRRLIYRSKPQSADKQELLLVSDTRSKSQDEEYFFS
binding [2]: binds
binding [3]: binds

B2: MYC-IFT88 (intra-flagellar transport protein 88) (protein, UniProt Q61371 1-824)
chain: MENVHLAPETDEDDLYSGFNDYNPAYDTEELENDTGFQQAVRTSHGRRPPVTAKIPSTAVSRPIATGYGSKTSLTSSMGRPMTGTIQDGVARPMTAVRAAGFSKAALRGSAFDPLGQSRGPAPPLEAKNEDSPEEKIRQLEKKVNELVEESCIANSCGDLKLALEKAKDAGRKERVLVRQREQVTSPENINLDLTYSVLFNLASQYSANEMYAEALNTYQVIVKNKMFSNAGRLKVNMGNIYLKQRNYSKAIKFYRMALDQIPSVHKEMRIKIMQNIGITFIKTGQYSDAINSFEHIMSMAPSLKAGFNLILSCFAIGDREKMKKAFQKLIAVPLEIDEDDKYISPSDDPHTNLLIEAIKNDHLRQMERERKAMAEKYIMTAAKLIAPVIEASFAVGYNWCVEVVKASQYVELANDLEINKAITYLRQKDFNQAVDTLKMFEKKDSRVKSAAATNLSFLYYLENEFAQASSYADLAVNSDRYNPSALTNKGNTVFANGDYEKAAEFYKEALRNDSSCTEALYNIGLTYKKLNRLDEALDSFLKLHAILRNSAQVLCQIANIYELMEDPNQAIEWLMQLISVVPTDSQALSKLGELYDSEGDKSQAFQYYYESYRYFPSNIEVIEWLGAYYIDTQFCEKAIQYFERASLIQPTQVKWQLMVASCFRRSGNYQKALDTYKEIHRKFPENVECLRFLVRLCTDIGLKEVQEYATKLKRLEKMKEMREQRIKSGRDSSGGSRSKREGSAGSDSGQNNSASSKSERLSAKLRALPGTDEPYESSGNKEIDASYVDPLGPQIERPKTAAKKRIDEDDFADEELGDDLLPE
binding [4]: binds

B3: HA-ODF2 (outer dense fibrous 2) (protein, UniProt A3KGV1 1-830)
chain: MSASSSGGSPRFPSCGKNGVTSLTQKKVLRTPCGAPSVTVTKSHKRGMKGDTVNVRRSVRVKTKVPWMPPGKSSARHVGCKWENPPHCLEITPPSSEKLVSVMRLSDLSTEDDDSGHCKMNRYDKKIDSLMNAVGCLKSEVKMQKGERQMAKRFLEERKEELEEVAHELAETEHENTVLRHNIERIKEEKDFTMLQKKHLQQEKECLMSKLVEAEMDGAAAAKQVMALKDTIGKLKTEKQMTCTDINTLTRQKELLLQKLSTFEETNRTLRDLLREQHCKEDSERLMEQQGTLLKRLAEADSEKARLLLLLQDKDKEVEELLQEIQCEKAQAKTASELSKSMESMRGHLQAQLRCKEAENSRLCMQIKNLERSGNQHKAEVEAIMEQLKELKQKGDRDKETLKKAIRAQKERAEKSEEYAEQLHVQLADKDLYVAEALSTLESWRSRYNQVVKDKGDLELEIIVLNDRVTDLVNQQQSLEEKMREDRDSLVERLHRQTAEYSAFKLENERLKASFAPMEDKLNQAHLEVQQLKASVKNYEGMIDNYKSQVMKTRLEADEVAAQLERCDKENKMLKDEMNKEIEAARRQFQSQLADLQQLPDILKITEAKLAECQDQLQGYERKNIDLTAIISDLRSRIEHQGDKLEMAREKHQASQKENKQLSQKVDELERKLEATSAQNVEFLQVIAKREEAIHQAQLRLEEKTRECGSLARQLESAIEDARRQVEQTKEQALSKERAAQSKILDLETQLSRTKTELGQLRRTRDDADRRYQSRLQDLKDRLEQSESTNRSMQNYVQFLKASYANVFGDAPYTSSYLTSSPIRSRSPPA
binding [4]: binds
